# Tested on: Colo320/MDR-LRP colon adenocarcinoma cell line
# Assay: MTT cytotoxicity assay on doxorubicin-resistant, ABCB1- and LRP-expressing Colo320 cells
# Type: cell-based, human
# Conditions: ratio of IC50 in resistant Colo320 and IC50 in sensitive Colo205
# Protocol: The doxorubicin-sensitive Colo205 (ATCC-CCL-222) and the doxorubicin-resistant ABCB1- and LRP-expressing Colo320/MDR-LRP (ATCC-CCL-220.1) human colon adenocarcinoma cell lines were obtained from LGC Promochem in Teddington, UK. These cell lines were cultivated in RPMI 1640 medium supplemented with 10% heat-inactivated foetal bovine serum (FBS), 2 mM L-glutamine, 1 mM Na-pyruvate, 10 mM HEPES, along with nystatin, and gentamicin. The normal MRC-5 (ATCC CCL-171) human embryonic lung fibroblast cell line was purchased from Sigma-Aldrich (Merck KGaA, Darmstadt, Germany). The MRC-5 cells were cultured in EMEM medium, supplemented with 1% non-essential amino acid (NEAA) mixture, a selection of vitamins, 10% heat-inactivated FBS, 2 mM L-glutamine, 1 mM Na pyruvate, nystatin, and gentamicin. The cell lines were incubated in humidified atmosphere (5% CO2, 95% air) at 37 °C. The cells were detached with a Trypsin-Versene (EDTA) solution for 5 min at 37 °C.
# The effects of increasing concentrations of the compounds on cell growth were tested in 96-well flat-bottomed microtiter plates. Namely, 1 × 10^4 of human colonic adenocarcinoma cells in 100 μL of the medium (RPMI 1640) were added to each well, except for the medium control wells. The adherent human embryonic lung fibroblast cell line was seeded in the EMEM medium for 24 h before the assay. The two-fold serial dilutions of the compounds were made in a separate plate (100–0.19 μM) and then transferred to the plates containing the cells. The starting concentration of the solvent DMSO was 2% v/v, and the highest concentration of the compounds in the plate was 100 μM. Plates were incubated at 37 °C for 24 h. At the end of the incubation, 20 μL of MTT (thiazolyl blue tetrazolium bromide) solution (from a 5 mg/mL stock solution) was added to each well. After incubation at 37 °C for 4 h, 100 μL of sodium dodecyl sulfate (SDS) solution (10% SDS in 0.01 M HCl) was added to each well, and the plates were further incubated at 37 °C overnight. Cell growth was determined by measuring the optical density (OD) at 540 nm (ref. 630 nm) with a Multiscan EX ELISA reader (Thermo Labsystems, Cheshire, WA, USA). Inhibition of cell growth was expressed as IC50 values, defined as the inhibitory dose that reduces the growth of the cells exposed to the tested compounds by 50%. IC50 values and the SD of triplicate and duplicate (in the case of MRC-5) experiments were calculated by using GraphPad Prism software version 5.00 for Windows, with a non-linear regression curve fit (GraphPad Software, San Diego, CA, USA; www.graphpad.com, accessed on 12 July 2021). Doxorubicin (from a 2 mg/mL stock solution, Teva Pharmaceuticals) was used as a positive control. […] The relative resistance (RR) was calculated as the ratio of the IC50 value in the resistant cancer cells and the IC50 value in the sensitive cancer cell lines. The selectivity indexes (SI) were calculated as the ratio of the IC50 value in the non-tumor cells and the IC50 value in the cancer cell lines. The activity of the compounds towards cancer cells is considered to be strongly selective if the selectivity index (SI) value is higher than 6, moderately selective if 3 < SI < 6, slightly selective if 1 < SI < 3, and non-selective if the SI is lower than 1 [22].
row,Compound,Relative resistance RR Colo320/Colo205
1,"CCOC(=O)C(c1cc(Cl)c2cccnc2c1O)N1CCOCC1 (centres unmarked) [Compound 10, Ethyl 2-(5-chloro-8-hydroxyquinolin-7-yl)-2-morpholinoacetate]",0.83
2,"CCOC(=O)C(c1cc(Cl)c2cccnc2c1O)c1c[nH]c2ccccc12 (centres unmarked) [Compound 11, Ethyl 2-(5-chloro-8-hydroxyquinolin-7-yl)-2-(1H-indol-3-yl)acetate]",0.98
3,"CCOC(=O)C(c1cc(Cl)c2cccnc2c1O)c1c[nH]c2ncccc12 (centres unmarked) [Compound 12, Ethyl 2-(5-chloro-8-hydroxyquinolin-7-yl)-2-(7-azaindole-3-yl)acetate]",0.62
4,"Oc1c(C(c2ccccc2)c2c[nH]c3ccccc23)cc(Cl)c2cccnc12 (centres unmarked) [Compound 14, 7-((1H-indol-3-yl)(phenyl)methyl)-5-chloroquinolin-8-ol]",1.07
5,"Oc1c(Cc2c[nH]c3ccccc23)cc(Cl)c2cccnc12 [Compound 16, 7-((1H-indol-3-yl)methyl)-5-chloroquinolin-8-ol]",0.37

# From PMC11396803, “Synthesis of Tumor Selective Indole and 8-Hydroxyquinoline Skeleton Containing Di-, or Triarylmethanes with Improved Cytotoxic Activity” (Molecules, 2024)
